Paper PMC10808738
No constants are given. Whether binding was seen depends on the method and setting. In cells and extracts the contact can be indirect. Some entries that bind do so weakly or less than the wild type. Values belong to the binder of their own block, whether it stands above or below them.

Sequences of proteins named here, by UniProt entry; tags and fusion partners are left off.
UniProt O00429: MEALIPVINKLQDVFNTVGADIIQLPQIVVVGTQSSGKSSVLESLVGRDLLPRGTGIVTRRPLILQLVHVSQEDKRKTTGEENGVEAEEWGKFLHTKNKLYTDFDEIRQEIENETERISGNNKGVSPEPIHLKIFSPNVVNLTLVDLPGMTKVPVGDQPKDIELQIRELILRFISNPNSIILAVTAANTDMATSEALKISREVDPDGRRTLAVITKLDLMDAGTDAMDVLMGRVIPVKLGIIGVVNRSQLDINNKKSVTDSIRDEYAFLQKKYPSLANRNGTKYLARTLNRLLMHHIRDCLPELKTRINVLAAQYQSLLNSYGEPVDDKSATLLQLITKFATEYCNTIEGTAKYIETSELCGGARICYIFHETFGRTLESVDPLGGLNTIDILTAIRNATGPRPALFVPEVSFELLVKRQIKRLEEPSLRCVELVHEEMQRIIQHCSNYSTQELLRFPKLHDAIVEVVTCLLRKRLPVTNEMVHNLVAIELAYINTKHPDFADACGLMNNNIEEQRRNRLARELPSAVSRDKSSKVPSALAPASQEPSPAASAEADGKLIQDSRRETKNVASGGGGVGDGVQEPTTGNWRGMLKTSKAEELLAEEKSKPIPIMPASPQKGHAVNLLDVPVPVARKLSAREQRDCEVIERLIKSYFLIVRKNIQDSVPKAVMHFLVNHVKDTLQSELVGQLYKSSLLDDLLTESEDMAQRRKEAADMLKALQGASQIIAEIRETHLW

Tests used:
Assay in all cases: co-IP; BEAS-2B cells with or without rmDEK (1 ug/ml, 24 h), lysed in IP Lysis Buffer (Pierce kit); anti-DRP1 or control IgG on crosslinked protein A/G agarose beads, overnight at 4 C; Western blot
[1] = molecular target: dynamin-related protein 1 (DRP1) (human (endogenous in BEAS-2B)), O00429; details: remark: other sources report otherwise
[2] = molecular target: T1, AAA domain-containing protein 3A (ATAD3A) (human (endogenous in BEAS-2B)) (UniProt Q9NVI7)
T1 sequence: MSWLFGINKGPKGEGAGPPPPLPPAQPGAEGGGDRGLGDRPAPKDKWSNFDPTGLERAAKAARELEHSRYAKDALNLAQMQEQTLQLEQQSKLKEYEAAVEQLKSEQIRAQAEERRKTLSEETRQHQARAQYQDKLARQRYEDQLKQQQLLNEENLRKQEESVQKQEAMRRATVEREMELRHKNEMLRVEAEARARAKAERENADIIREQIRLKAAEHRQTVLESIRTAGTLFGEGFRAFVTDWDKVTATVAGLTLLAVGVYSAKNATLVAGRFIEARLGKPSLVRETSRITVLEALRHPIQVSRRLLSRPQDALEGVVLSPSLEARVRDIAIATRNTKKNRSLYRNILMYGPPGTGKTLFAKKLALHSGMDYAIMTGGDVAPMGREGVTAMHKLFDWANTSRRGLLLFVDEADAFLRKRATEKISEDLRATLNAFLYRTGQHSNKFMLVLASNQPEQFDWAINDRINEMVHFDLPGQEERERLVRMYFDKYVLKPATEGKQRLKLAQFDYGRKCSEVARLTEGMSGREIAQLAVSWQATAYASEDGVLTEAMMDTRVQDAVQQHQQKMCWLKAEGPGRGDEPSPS

[3] = molecular target: dynamin-related protein 1 (DRP1) (human (endogenous in BEAS-2B)) (UniProt O00429)

- binding [1]: binds
B1: AAA domain-containing protein 3A (ATAD3A), Q9NVI7 1-586 (protein)
chain: T1 sequence

- binding [2]: binds
- binding [3]: binds
B2: DEK protein (protein, UniProt P35659 1-375)
chain: MSASAPAAEGEGTPTQPASEKEPEMPGPREESEEEEDEDDEEEEEEEKEKSLIVEGKREKKKVERLTMQVSSLQREPFTIAQGKGQKLCEIERIHFFLSKKKTDELRNLHKLLYNRPGTVSSLKKNVGQFSGFPFEKGSVQYKKKEEMLKKFRNAMLKSICEVLDLERSGVNSELVKRILNFLMHPKPSGKPLPKSKKTCSKGSKKERNSSGMARKAKRTKCPEILSDESSSDEDEKKNKEESSDDEDKESEEEPPKKTAKREKPKQKATSKSKKSVKSANVKKADSSTTKKNQNSSKKESESEDSSDDEPLIKKLKKPPTDEELKETIKKLLASANLEEVTMKQICKKVYENYPTYDLTERKDFIKTTVKELIS
